Experimental data taken from the supplement of paper PMC10849652.
The list shows a part of the results.

Protein sequences, listed by entry. Tags and fused reporters are not part of them. Lines headed by an entry give the natural chain unless they say otherwise; changes in a name come on top.
UniProt Q99719: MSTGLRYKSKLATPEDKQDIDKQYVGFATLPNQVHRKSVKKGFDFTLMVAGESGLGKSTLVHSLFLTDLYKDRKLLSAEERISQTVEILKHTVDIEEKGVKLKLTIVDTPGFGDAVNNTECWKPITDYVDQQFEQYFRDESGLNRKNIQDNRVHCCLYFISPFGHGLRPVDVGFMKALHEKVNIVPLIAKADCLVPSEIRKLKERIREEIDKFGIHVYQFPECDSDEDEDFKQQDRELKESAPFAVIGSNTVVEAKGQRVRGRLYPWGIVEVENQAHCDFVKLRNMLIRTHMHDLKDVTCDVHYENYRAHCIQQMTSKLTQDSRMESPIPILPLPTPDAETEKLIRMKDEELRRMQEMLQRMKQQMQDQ
UniProt Q9Y6B6: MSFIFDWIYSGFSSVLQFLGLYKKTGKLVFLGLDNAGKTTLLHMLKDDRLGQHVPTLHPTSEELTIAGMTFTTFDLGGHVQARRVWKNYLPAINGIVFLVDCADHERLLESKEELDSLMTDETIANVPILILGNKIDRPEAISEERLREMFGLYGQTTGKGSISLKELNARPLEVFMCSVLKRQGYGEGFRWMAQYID
UniProt Q9NRP4: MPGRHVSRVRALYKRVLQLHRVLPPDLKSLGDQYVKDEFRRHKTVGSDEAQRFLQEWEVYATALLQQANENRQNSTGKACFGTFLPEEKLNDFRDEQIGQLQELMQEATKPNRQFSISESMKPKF
UniProt P22307: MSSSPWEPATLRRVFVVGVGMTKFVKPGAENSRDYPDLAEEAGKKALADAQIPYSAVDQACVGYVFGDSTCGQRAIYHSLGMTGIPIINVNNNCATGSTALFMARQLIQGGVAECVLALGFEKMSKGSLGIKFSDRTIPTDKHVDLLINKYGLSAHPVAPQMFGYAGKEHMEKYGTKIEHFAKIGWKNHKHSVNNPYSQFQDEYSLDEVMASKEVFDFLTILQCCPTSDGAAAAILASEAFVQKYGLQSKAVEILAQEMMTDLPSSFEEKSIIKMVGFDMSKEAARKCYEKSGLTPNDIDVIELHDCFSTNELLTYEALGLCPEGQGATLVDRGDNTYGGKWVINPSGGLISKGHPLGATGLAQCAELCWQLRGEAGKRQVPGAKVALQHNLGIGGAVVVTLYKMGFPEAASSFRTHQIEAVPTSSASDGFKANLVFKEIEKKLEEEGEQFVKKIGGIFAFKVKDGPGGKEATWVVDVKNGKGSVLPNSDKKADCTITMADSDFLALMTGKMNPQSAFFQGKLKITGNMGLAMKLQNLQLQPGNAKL
UniProt Q16181: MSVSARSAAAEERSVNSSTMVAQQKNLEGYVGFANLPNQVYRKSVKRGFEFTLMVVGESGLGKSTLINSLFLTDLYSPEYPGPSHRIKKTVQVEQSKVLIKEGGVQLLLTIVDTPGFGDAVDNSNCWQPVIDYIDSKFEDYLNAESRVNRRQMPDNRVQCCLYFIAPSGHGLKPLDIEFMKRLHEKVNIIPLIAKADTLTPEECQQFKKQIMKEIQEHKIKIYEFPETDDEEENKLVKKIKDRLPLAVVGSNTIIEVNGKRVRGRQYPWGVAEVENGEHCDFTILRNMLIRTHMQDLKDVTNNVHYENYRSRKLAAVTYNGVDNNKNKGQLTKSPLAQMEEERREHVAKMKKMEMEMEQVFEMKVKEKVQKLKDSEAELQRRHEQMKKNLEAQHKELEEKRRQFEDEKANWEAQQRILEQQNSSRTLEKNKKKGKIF
UniProt Q0VDG4: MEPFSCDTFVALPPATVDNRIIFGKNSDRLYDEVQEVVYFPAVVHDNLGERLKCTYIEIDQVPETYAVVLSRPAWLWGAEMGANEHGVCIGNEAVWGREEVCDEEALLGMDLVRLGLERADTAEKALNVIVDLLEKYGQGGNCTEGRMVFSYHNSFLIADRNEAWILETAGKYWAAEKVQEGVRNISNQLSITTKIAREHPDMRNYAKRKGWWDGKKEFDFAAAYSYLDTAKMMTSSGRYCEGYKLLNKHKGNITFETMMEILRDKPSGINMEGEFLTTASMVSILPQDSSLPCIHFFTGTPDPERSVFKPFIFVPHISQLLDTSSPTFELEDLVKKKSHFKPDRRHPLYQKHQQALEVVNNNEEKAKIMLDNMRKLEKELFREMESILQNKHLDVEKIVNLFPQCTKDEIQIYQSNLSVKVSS
UniProt P60059: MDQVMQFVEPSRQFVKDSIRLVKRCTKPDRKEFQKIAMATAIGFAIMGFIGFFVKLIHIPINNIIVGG
UniProt P31040: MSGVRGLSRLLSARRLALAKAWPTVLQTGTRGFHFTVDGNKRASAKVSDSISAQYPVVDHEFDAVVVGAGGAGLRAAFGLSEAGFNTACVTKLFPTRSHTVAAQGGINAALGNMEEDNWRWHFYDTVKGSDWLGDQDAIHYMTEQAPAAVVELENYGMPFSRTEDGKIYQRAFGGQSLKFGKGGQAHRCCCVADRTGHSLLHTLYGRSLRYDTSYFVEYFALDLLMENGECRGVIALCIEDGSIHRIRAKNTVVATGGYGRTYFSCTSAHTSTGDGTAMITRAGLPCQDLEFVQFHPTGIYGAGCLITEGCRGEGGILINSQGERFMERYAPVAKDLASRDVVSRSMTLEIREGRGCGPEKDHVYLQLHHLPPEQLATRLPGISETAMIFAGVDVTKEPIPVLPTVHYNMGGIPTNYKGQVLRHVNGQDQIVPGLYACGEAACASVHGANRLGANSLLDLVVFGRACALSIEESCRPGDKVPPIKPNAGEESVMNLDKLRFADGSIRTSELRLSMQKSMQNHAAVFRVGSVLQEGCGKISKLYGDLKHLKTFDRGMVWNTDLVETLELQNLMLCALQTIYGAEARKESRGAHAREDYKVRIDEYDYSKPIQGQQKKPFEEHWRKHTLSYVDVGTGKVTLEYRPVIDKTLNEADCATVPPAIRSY
UniProt Q96GA7: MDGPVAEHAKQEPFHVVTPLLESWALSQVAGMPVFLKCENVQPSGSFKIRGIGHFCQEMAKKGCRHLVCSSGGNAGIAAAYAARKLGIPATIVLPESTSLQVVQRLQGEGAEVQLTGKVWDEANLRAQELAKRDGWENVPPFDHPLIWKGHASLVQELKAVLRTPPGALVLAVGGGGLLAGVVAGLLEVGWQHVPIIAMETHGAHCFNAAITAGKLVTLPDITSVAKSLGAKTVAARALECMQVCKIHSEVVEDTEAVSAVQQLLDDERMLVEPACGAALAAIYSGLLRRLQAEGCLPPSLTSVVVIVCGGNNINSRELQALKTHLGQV
UniProt Q9UBE0: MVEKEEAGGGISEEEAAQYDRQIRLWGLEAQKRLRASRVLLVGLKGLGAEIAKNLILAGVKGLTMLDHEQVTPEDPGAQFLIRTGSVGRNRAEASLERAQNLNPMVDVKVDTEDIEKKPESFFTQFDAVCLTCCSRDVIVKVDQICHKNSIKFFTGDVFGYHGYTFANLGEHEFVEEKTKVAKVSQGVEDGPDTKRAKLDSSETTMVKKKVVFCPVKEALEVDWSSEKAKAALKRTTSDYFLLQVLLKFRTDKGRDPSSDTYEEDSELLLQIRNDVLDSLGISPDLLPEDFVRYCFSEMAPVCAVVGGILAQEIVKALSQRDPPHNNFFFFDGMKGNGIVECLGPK
UniProt O75396: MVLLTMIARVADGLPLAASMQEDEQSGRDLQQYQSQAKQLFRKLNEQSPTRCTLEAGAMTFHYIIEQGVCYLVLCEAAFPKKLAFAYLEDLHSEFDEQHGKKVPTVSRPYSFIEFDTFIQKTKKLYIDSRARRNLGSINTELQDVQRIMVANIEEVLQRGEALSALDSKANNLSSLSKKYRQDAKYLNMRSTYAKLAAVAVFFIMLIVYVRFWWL
UniProt P55735: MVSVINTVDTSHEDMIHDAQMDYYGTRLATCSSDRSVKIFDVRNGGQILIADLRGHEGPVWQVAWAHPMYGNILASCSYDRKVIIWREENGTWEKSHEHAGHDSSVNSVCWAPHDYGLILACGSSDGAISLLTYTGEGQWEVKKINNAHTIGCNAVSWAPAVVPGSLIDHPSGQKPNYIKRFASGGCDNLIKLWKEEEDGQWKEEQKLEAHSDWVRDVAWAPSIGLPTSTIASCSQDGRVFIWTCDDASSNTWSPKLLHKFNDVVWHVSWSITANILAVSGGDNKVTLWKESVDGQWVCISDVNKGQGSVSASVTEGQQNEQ
UniProt Q92599: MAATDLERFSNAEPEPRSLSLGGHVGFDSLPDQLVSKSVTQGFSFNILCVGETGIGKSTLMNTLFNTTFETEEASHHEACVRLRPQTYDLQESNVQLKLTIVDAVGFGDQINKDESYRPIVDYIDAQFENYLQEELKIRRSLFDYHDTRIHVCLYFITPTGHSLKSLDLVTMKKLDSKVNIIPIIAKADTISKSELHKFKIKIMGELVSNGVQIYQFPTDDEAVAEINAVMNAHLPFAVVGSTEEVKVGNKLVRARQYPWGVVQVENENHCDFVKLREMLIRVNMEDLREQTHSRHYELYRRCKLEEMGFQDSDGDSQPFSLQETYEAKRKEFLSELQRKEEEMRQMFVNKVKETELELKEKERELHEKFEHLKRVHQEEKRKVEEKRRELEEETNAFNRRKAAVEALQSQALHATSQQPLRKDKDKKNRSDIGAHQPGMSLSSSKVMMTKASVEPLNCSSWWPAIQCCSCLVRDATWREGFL
UniProt Q6UVJ0: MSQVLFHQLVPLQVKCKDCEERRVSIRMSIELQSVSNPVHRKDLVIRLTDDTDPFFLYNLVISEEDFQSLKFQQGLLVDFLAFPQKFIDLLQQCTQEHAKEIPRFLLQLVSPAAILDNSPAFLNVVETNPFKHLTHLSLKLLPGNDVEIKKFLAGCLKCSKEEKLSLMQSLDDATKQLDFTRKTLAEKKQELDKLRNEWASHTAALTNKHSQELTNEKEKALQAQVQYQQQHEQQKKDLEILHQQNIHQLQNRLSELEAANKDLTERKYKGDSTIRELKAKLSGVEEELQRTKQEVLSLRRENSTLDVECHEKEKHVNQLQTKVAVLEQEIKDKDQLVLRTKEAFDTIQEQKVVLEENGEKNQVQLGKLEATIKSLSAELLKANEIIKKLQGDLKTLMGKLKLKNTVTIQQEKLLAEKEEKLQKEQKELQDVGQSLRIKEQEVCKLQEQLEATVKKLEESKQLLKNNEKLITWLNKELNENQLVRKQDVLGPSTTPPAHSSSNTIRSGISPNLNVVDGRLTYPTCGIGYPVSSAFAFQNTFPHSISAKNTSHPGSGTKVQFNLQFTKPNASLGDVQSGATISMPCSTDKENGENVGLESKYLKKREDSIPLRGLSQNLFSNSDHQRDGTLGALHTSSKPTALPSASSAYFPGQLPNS
UniProt Q99611, whole entry, looked up: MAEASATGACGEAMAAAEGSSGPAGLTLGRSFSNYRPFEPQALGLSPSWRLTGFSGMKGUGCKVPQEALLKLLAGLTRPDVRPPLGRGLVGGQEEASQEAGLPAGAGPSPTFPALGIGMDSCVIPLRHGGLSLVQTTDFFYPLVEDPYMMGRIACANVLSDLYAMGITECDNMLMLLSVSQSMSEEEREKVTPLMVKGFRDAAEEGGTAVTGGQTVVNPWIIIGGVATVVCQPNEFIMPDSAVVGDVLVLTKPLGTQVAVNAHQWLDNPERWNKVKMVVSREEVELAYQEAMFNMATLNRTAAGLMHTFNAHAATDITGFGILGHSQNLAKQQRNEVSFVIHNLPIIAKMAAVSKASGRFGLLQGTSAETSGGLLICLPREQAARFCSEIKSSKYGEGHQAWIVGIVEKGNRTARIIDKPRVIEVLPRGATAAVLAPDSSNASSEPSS
UniProt Q96BU1: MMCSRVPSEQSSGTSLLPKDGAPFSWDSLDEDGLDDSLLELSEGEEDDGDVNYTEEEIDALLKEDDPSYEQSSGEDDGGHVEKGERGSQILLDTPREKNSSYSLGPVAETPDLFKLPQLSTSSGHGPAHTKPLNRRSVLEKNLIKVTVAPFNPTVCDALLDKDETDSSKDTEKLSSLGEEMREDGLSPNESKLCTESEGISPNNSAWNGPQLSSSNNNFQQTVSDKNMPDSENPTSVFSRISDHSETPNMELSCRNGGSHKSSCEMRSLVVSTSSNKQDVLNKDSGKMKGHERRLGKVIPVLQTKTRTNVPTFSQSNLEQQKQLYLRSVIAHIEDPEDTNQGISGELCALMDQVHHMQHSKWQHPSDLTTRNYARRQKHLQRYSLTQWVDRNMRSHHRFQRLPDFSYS

What was measured:
Assay in all cases: log2 fold change, soluble protein after heating vs DMSO (PISA); higher = thermal stabilisation; K562 lysate, 10 uM; active = over 0.2 and 3.5 SD of the protein, either way, in both replicates (recomputed)
[1] = compound: CN1CC[C@H](c2c(O)cc(O)c3c(=O)cc(-c4ccccc4Cl)oc23)[C@H](O)C1 [alvocidib]
In short: (§1)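 Pellets of K562 cells were dounce-homogenised in PBS pH 7.4 with 1 mM MgCl2, and the crude extract was held at 1 mg/mL protein for a 30 min treatment with 10 μM compound. Aliquots were heated for 3 min over 48°C-58°C and pooled before NP-40 was added to 0.5% at 4°C. The supernatant from 21,000xg for 90 min was quantified by TMTpro 16plex LC-MS/MS with channel sums equalised. Values are reported from duplicates as log-two fold change in thermal stability relative to solvent controls.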

[2] = compound: CN1CCc2c(c3ccccc3n2Cc2ccc(C(=O)NO)cc2)C1 [Tubastatin A]
In short: as §1

[3] = compound: CNC(=O)C1=CC=CC=C1NC2=NC(=NC=C2Cl)NC3=C(C=C(C=C3)N4CCOCC4)OC
In short: as §1

[4] = compound: CNC(=O)c1ccc(Nc2ncc(C(F)(F)F)c(NCc3nccnc3N(C)S(C)(=O)=O)n2)cc1 [defactinib]
In short: as §1

[5] = compound: CNc1nc(-c2ccc3c(N)n[nH]c3c2)cc(N2C[C@@H](C(=O)NC3CCCCC3)CC[C@H]2C)n1
In short: as §1

[6] = compound: COC(=O)N[C@@H](C)CNc1nccc(-c2cn(C(C)C)nc2-c2cc(Cl)cc(NS(C)(=O)=O)c2F)n1 [encorafenib]
In short: as §1

[7] = compound: COC(=O)[C@H](CCSC)NC(=O)C1=C(C=C(C=C1)NC[C@H](CS)N)C2=CC=CC=C2
In short: as §1

[8] = compound: COc1cc(Nc2ncc3c(n2)-c2ccc(Cl)cc2C(c2c(F)cccc2OC)=NC3)ccc1C(=O)O [alisertib]
In short: as §1

[9] = compound: COc1cc2nc(-c3cc(F)ccc3O)nc(N[C@@H]3CNC[C@H]3C(C)(C)O)c2cc1OC
In short: as §1

[10] = compound: COc1cc2ncnc(Nc3ccc(F)c(Cl)c3)c2cc1OCCCN1CCOCC1 [gefitinib]
In short: as §1

[11] = compound: CS(=O)(=O)CCNCc1ccc(-c2ccc3ncnc(Nc4ccc(OCc5cccc(F)c5)c(Cl)c4)c3c2)o1 [lapatinib]
In short: as §1

[12] = compound: CS(=O)(=O)N1CCN(Cc2cc3nc(-c4cccc5[nH]ncc45)nc(N4CCOCC4)c3s2)CC1 [pictilisib]
In short: as §1

[13] = compound: C[C@@H](Oc1cc(-c2cnn(C3CCNCC3)c2)cnc1N)c1c(Cl)ccc(F)c1Cl [crizotinib]
In short: as §1

[14] = compound: C[C@H](C1=CC=C(C=C1)C(=O)NC2=C3C=CNC3=NC=C2)N
In short: as §1

[15] = compound: C[C@H](Nc1ncnc2nc[nH]c12)c1cc2cccc(Cl)c2c(=O)n1-c1ccccc1 [duvelisib]
In short: as §1

[16] = compound: Cc1cc(Nc2cc(CN3CCOCC3)c3nc(C)c(Cc4ccc(Cl)cc4F)n3n2)n[nH]1 [gandotinib]
In short: as §1

[17] = compound: Cc1cc(Nc2cc(N3CCN(C)CC3)nc(Sc3ccc(NC(=O)C4CC4)cc3)n2)n[nH]1 [tozasertib]
In short: as §1

[18] = compound: Cc1ccc(-n2nc(C(C)(C)C)cc2NC(=O)Nc2ccc(OCCN3CCOCC3)c3ccccc23)cc1 [doramapimod]
In short: as §1

[19] = compound: Cc1ccc(NC(=O)c2ccc(CN3CC[C@H](N(C)C)C3)c(C(F)(F)F)c2)cc1Nc1nccc(-c2cncnc2)n1 [bafetinib]
In short: as §1

[20] = compound: Cc1cccc(CC(=O)N2CCc3c2ccc(-c2cn(C)c4ncnc(N)c24)c3F)n1
In short: as §1

Row | Target | log2 fold change [1] | log2 fold change [2] | log2 fold change [3] | log2 fold change [4] | log2 fold change [5] | log2 fold change [6] | log2 fold change [7] | log2 fold change [8] | log2 fold change [9] | log2 fold change [10] | log2 fold change [11] | log2 fold change [12] | log2 fold change [13] | log2 fold change [14] | log2 fold change [15] | log2 fold change [16] | log2 fold change [17] | log2 fold change [18] | log2 fold change [19] | log2 fold change [20]
1 | SEPTIN5 (UniProt Q99719) | inactive: 0.039 | inactive: -0.014 | inactive: -0.014 | inactive: -0.026 | inactive: 0.013 | inactive: -0.005 | inactive: 0.004 | inactive: 0.002 | inactive: -0.026 | inactive: -0.021 | inactive: 0 | inactive: 0.034 | inactive: 0.001 | inactive: 0.018 | inactive: 0.033 | inactive: -0.014 | inactive: 0.029 | inactive: 0.023 | inactive: 0.106 | inactive: -0.053
2 | SAR1B (UniProt Q9Y6B6) | inactive: 0.032 | inactive: 0.176 | inactive: 0.199 | inactive: 0.05 | inactive: 0.147 | inactive: 0.203 | inactive: 0.052 | inactive: 0.128 | inactive: 0.145 | inactive: 0.015 | inactive: 0.122 | inactive: 0.036 | inactive: -0.056 | inactive: -0.031 | inactive: 0.004 | active: 0.44 | inactive: -0.005 | active: 0.578 | inactive: -0.079 | inactive: 0.08
3 | SDHAF3 (UniProt Q9NRP4) | inactive: 0.005 | inactive: -0.08 | inactive: 0.089 | inactive: -0.013 | inactive: -0.097 | inactive: 0.047 | inactive: -0.108 | inactive: -0.029 | inactive: -0.001 | inactive: 0.009 | inactive: -0.008 | inactive: -0.011 | inactive: -0.014 | inactive: -0.087 | inactive: 0.021 | inactive: 0.013 | inactive: 0.027 | inactive: 0.062 | inactive: -0.064 | inactive: -0.023
4 | SCP2 (UniProt P22307) | inactive: 0.035 | inactive: 0.039 | inactive: 0.002 | inactive: 0.019 | inactive: 0.033 | inactive: 0.001 | inactive: -0.083 | inactive: -0.006 | inactive: 0.008 | inactive: -0.004 | inactive: 0.011 | inactive: -0.025 | inactive: 0.033 | inactive: 0.113 | inactive: 0.002 | inactive: -0.001 | inactive: -0.025 | inactive: 0 | inactive: -0.002 | inactive: -0.05
5 | SEPTIN7 (UniProt Q16181) | inactive: 0.036 | inactive: 0.044 | inactive: 0 | inactive: -0.008 | inactive: -0.013 | inactive: -0.018 | inactive: 0.02 | inactive: -0.013 | inactive: -0.004 | inactive: 0.013 | inactive: -0.003 | inactive: 0.004 | inactive: 0.007 | inactive: 0.106 | inactive: 0.009 | inactive: -0.037 | inactive: 0.002 | inactive: 0.041 | inactive: 0.056 | inactive: -0.06
6 | SCRN3 (UniProt Q0VDG4) | inactive: -0.003 | inactive: 0.011 | inactive: 0.047 | inactive: -0.001 | inactive: 0.009 | inactive: -0.044 | inactive: -0.009 | inactive: -0.036 | inactive: -0.012 | inactive: 0.016 | inactive: 0.026 | inactive: 0.022 | inactive: -0.017 | inactive: 0.043 | inactive: -0.021 | inactive: -0.02 | inactive: -0.063 | inactive: -0.041 | inactive: -0.035 | inactive: -0.032
7 | SEC61G (UniProt P60059) | inactive: -0.107 | inactive: 0.063 | inactive: 0.09 | inactive: 0.045 | inactive: 0.137 | inactive: -0.02 | inactive: 0.067 | inactive: 0.053 | inactive: 0.009 | inactive: 0.036 | inactive: -0.094 | inactive: 0.139 | inactive: 0.209 | inactive: -0.331 | inactive: 0.105 | active: 0.46 | inactive: -0.168 | inactive: 0.098 | inactive: -0.192 | inactive: 0.338
8 | SDHA (UniProt P31040) | inactive: -0.004 | inactive: -0.012 | inactive: 0 | inactive: -0.04 | inactive: 0.002 | inactive: -0.023 | inactive: -0.04 | inactive: -0.023 | inactive: -0.014 | inactive: -0.031 | inactive: 0.004 | inactive: -0.011 | inactive: -0.008 | inactive: -0.004 | inactive: 0.013 | inactive: 0.03 | inactive: 0.006 | inactive: 0.024 | inactive: 0.026 | inactive: -0.017
9 | SDSL (UniProt Q96GA7) | inactive: -0.012 | inactive: 0.01 | inactive: -0.005 | inactive: 0.097 | inactive: -0.004 | inactive: 0.026 | inactive: 0.02 | inactive: -0.02 | inactive: 0.021 | inactive: 0.056 | inactive: -0.02 | inactive: 0.005 | inactive: -0.024 | inactive: -0.098 | inactive: 0.034 | inactive: 0.055 | inactive: 0.015 | inactive: 0.094 | inactive: -0.008 | inactive: 0.034
10 | SAE1 (UniProt Q9UBE0) | inactive: 0.019 | inactive: 0.004 | inactive: -0.022 | inactive: -0.036 | inactive: -0.015 | inactive: -0.022 | inactive: 0.017 | inactive: -0.007 | inactive: 0.003 | inactive: -0.042 | inactive: -0.017 | inactive: 0.001 | inactive: 0.026 | inactive: 0.007 | inactive: -0.01 | inactive: -0.042 | inactive: -0.015 | inactive: -0.015 | inactive: 0.02 | inactive: -0.017
11 | SEC22B (UniProt O75396) | inactive: 0.004 | inactive: 0.023 | inactive: -0.002 | inactive: -0.02 | inactive: 0.001 | inactive: 0.03 | inactive: -0.121 | inactive: -0.02 | inactive: 0.027 | inactive: 0.008 | inactive: -0.003 | inactive: -0.046 | inactive: 0.016 | inactive: -0.038 | inactive: -0.038 | inactive: 0.022 | inactive: -0.043 | inactive: -0.013 | inactive: -0.048 | inactive: -0.003
12 | SEC13 isoform 3 (UniProt P55735) | inactive: 0.107 | inactive: 0.029 | inactive: -0.024 | inactive: -0.06 | inactive: -0.064 | inactive: 0.002 | inactive: -0.039 | inactive: 0.02 | inactive: -0.004 | inactive: 0.03 | inactive: 0 | inactive: 0.023 | inactive: 0.058 | active: 0.417 | inactive: 0.02 | inactive: -0.076 | inactive: 0.01 | inactive: -0.031 | inactive: -0.016 | inactive: -0.068
13 | SEPTIN8 (UniProt Q92599) | inactive: 0.006 | inactive: 0.014 | inactive: -0.004 | inactive: 0.006 | inactive: -0.009 | inactive: -0.026 | inactive: 0.018 | inactive: -0.006 | inactive: 0.003 | inactive: 0.001 | inactive: -0.012 | inactive: 0 | inactive: 0.054 | inactive: 0.027 | inactive: -0.013 | inactive: -0.005 | inactive: 0.007 | inactive: 0.008 | inactive: 0.004 | inactive: -0.049
14 | SASS6 (UniProt Q6UVJ0) | inactive: 0.051 | inactive: -0.104 | inactive: 0.018 | inactive: 0.03 | inactive: -0.002 | inactive: 0.053 | inactive: 0.085 | inactive: -0.019 | inactive: 0.005 | inactive: 0.001 | inactive: 0.001 | inactive: -0.056 | inactive: -0.01 | inactive: 0.099 | inactive: -0.018 | inactive: -0.076 | inactive: 0.004 | inactive: -0.01 | inactive: -0.032 | inactive: -0.054
15 | SEPHS2 (UniProt Q99611) | inactive: -0.031 | inactive: 0.02 | inactive: -0.024 | inactive: -0.008 | inactive: 0.026 | inactive: -0.019 | inactive: 0.049 | inactive: -0.014 | inactive: -0.01 | inactive: -0.006 | inactive: -0.006 | inactive: -0.019 | inactive: 0.104 | inactive: -0.021 | inactive: 0.017 | inactive: 0.047 | inactive: 0.015 | inactive: -0.01 | inactive: 0.039 | inactive: 0.006
16 | S100PBP (UniProt Q96BU1) | inactive: -0.071 | inactive: -0.063 | inactive: -0.031 | inactive: 0.121 | inactive: 0.092 | inactive: 0.19 | inactive: -0.12 | inactive: -0.061 | inactive: 0.025 | inactive: 0.001 | inactive: 0.024 | inactive: -0.057 | inactive: 0.008 | inactive: 0.027 | inactive: 0.034 | inactive: 0.013 | inactive: 0.248 | inactive: 0.08 | inactive: -0.016 | inactive: -0.046

A second format for some results above:

| Row | Target | log2 fold change [1] | log2 fold change [2] | log2 fold change [3] | log2 fold change [4] | log2 fold change [5] | log2 fold change [6] | log2 fold change [7] | log2 fold change [8] | log2 fold change [9] | log2 fold change [10] | log2 fold change [11] | log2 fold change [12] | log2 fold change [13] | log2 fold change [14] | log2 fold change [15] | log2 fold change [16] | log2 fold change [17] | log2 fold change [18] | log2 fold change [19] | log2 fold change [20] |
| --- | --- | --- | --- | --- | --- | --- | --- | --- | --- | --- | --- | --- | --- | --- | --- | --- | --- | --- | --- | --- | --- |
| 4 | SCP2 (UniProt P22307) | inactive: 0.035 | inactive: 0.039 | inactive: 0.002 | inactive: 0.019 | inactive: 0.033 | inactive: 0.001 | inactive: -0.083 | inactive: -0.006 | inactive: 0.008 | inactive: -0.004 | inactive: 0.011 | inactive: -0.025 | inactive: 0.033 | inactive: 0.113 | inactive: 0.002 | inactive: -0.001 | inactive: -0.025 | inactive: 0 | inactive: -0.002 | inactive: -0.05 |
| 5 | SEPTIN7 (UniProt Q16181) | inactive: 0.036 | inactive: 0.044 | inactive: 0 | inactive: -0.008 | inactive: -0.013 | inactive: -0.018 | inactive: 0.02 | inactive: -0.013 | inactive: -0.004 | inactive: 0.013 | inactive: -0.003 | inactive: 0.004 | inactive: 0.007 | inactive: 0.106 | inactive: 0.009 | inactive: -0.037 | inactive: 0.002 | inactive: 0.041 | inactive: 0.056 | inactive: -0.06 |
| 8 | SDHA (UniProt P31040) | inactive: -0.004 | inactive: -0.012 | inactive: 0 | inactive: -0.04 | inactive: 0.002 | inactive: -0.023 | inactive: -0.04 | inactive: -0.023 | inactive: -0.014 | inactive: -0.031 | inactive: 0.004 | inactive: -0.011 | inactive: -0.008 | inactive: -0.004 | inactive: 0.013 | inactive: 0.03 | inactive: 0.006 | inactive: 0.024 | inactive: 0.026 | inactive: -0.017 |
| 10 | SAE1 (UniProt Q9UBE0) | inactive: 0.019 | inactive: 0.004 | inactive: -0.022 | inactive: -0.036 | inactive: -0.015 | inactive: -0.022 | inactive: 0.017 | inactive: -0.007 | inactive: 0.003 | inactive: -0.042 | inactive: -0.017 | inactive: 0.001 | inactive: 0.026 | inactive: 0.007 | inactive: -0.01 | inactive: -0.042 | inactive: -0.015 | inactive: -0.015 | inactive: 0.02 | inactive: -0.017 |
